Our source for the binding values is patent US20200392227A1.

Protein sequences, listed by entry. Tags and fused reporters are not part of them. Residues count along the entry.
UniProt P31994, residues 43-310: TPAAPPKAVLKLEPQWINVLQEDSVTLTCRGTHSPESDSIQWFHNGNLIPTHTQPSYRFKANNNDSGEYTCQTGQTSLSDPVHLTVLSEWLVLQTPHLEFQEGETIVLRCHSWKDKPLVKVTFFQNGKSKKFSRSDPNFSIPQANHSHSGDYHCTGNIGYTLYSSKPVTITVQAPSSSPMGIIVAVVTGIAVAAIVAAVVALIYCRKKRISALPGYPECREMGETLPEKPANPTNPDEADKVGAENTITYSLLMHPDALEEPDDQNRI

The assay addresses human FcγRIIB expressed on CHO cells (human) (UniProt P31994). In words: FACS, CHO cells expressing FcγRIIB.

Results are given in words; binding and its absence hold for the method and conditions named. Some binding calls cover weakened binding; strength is not graded here. Tags and fused reporters may be left off the sequences shown.

B1: anti-CD137 IgG2 with Fc variant G2m28 (antibody)
heavy: EVQLVQSGAEVKKPGESLRISCKGSGYSFSTYWISWVRQMPGKGLEWMGKIYPGDSYTNYSPSFQGQVTISADKSISTAYLQWSSLKASDTAMYYCARGYGIFDYWGQGTLVTVSSASTKGPSVFPLAPCSRSTSESTAALGCLVKDYFPEPVTVSWNSGALTSGVHTFPAVLQSSGLYSLSSVVTVPSSNFGTQTYTCNVDHKPSNTKVDKTVERKCCVECPPCPAPPVAPSVFLFPPKPKDTLMISRTPEVTCVVVDVEHEDPEVQFNWYVDGVEVHNAKTKPREEQFNSTFRVVSVLTVVHQDWLNGKEYKCKVSNKGLPAPIEKTISKTKGQPREPQVYTLPPSREEMTKNQVSLTCLVKGFYPSDIAVEWESNGQPENNYKTTPPMLDSDGSFFLYSKLTVDKSRWQQGNVFSCSVMHEALHNHYTQKSLSLSPGK
light: SYELTQPPSVSVSPGQTASITCSGDNIGDQYAHWYQQKPGQSPVLVIYQDKNRPSGIPERFSGSNSGNTATLTISGTQAMDEADYYCATYTGFGSLAVFGGGTKLTVLGQPKAAPSVTLFPPSSEELQANKATLVCLISDFYPGAVTVAWKADSSPVKAGVETTTPSKQSNNKYAASSYLSLTPEQWKSHRSYSCQVTHEGSTVEKTVAPTECS
For B1, the binding entry is “binds”.
